In the test the target is endogenous mouse PQBP1 (mouse (endogenous in primary microglia and in R6/2 cerebral cortex)) (UniProt Q91VJ5). The experiment in a line: co-IP; RIPA lysate of cerebral cortex of R6/2 mice; precipitated with anti-PQBP1 or anti-tau antibody and Protein G Sepharose; SDS-PAGE.

Amino acid sequences for entries named in this document (tags omitted).
UniProt Q91VJ5: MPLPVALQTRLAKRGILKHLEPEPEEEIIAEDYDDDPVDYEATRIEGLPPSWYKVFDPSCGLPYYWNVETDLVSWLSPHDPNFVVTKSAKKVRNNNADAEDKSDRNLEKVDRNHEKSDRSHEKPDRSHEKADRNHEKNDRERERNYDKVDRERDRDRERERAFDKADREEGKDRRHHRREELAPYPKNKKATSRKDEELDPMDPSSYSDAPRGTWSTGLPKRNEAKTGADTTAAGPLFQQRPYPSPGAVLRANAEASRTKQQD

Results are given in words; binding and its absence hold for the method and conditions named. Binding seen in cells or lysates may run through a third protein. Binding can be weak; no strength is given.

In the case of “endogenous mouse tau (from UniProt P10637-2)”, the binding entry is recorded as “binds”.

(Values after paper PMC8592984.)
